Reference: PubChem BioAssay AID192 (DTP/NCI, 2004)
The list is a part of this screen's results and no random one: it gathers tests that were run many times, whatever their T/C, doses with no T/C, and many T/C values between a quarter and a half above the control. Further doses and runs are listed elsewhere. T/C gives the treated animals as a percentage of the vehicle group. Some entries give survivors of the animals treated and no T/C: the source holds a T/C of zero for them, seemingly a mark for toxic or unscored doses. Some doses without a T/C left all or most animals alive at the check, yet need not have been tolerated: the source hardly ever lists a survival T/C far under the control, and the zero likely stands for such cases as well. Counts of survivors are from the toxicity check (mostly the fifth day) where no day follows; animals may have died later. Schedule codes are those of the source, taken here to give the interval after Q, in days (D) or hours (H), and the number of doses after X. For survival time, this PubChem deposit counts one and a half times the control or more as active, and values a quarter to a half above the control carry no call in these data; other NCI protocols may use other cut-offs. Some entries hold several experiments; the values are given in rising order. Some T/C values carry the count of animals alive at the toxicity check (mostly the fifth day); without a count, all were alive then.

Test system: BDF1 mice, B16 melanoma ip, median survival T/C
Assay: NCI In Vivo Anticancer Drug Screen. Data for tumor model B16 Melanoma (intraperitoneal) in B6D2F1 (BDF1) mice
Settings: T/C endpoint: median survival time, higher T/C = longer survival
Procedure, shortened: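 Mice with transplantable tumors; drug vs vehicle groups; endpoint survival or tumor size; value = T/C.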

[1] = dose: 12.5 mg/kg/injection, schedule: Q01DX009 (ip), vehicle: Klucel (hydroxypropylcellulose) (HPC)
[2] = dose: 100.0 mg/kg/injection, schedule: Q01DX009 (ip), vehicle: Klucel (hydroxypropylcellulose) (HPC)
[3] = dose: 200.0 mg/kg/injection, schedule: Q01DX009 (ip), vehicle: Klucel (hydroxypropylcellulose) (HPC)
[4] = dose: 400.0 mg/kg/injection, schedule: Q01DX009 (ip), vehicle: Klucel (hydroxypropylcellulose) (HPC)
[5] = dose: 200.0 mg/kg/injection, schedule: Q01DX009 (ip), vehicle: saline with Tween-80
[6] = dose: 400.0 mg/kg/injection, schedule: Q01DX009 (ip), vehicle: saline
[7] = dose: 50.0 mg/kg/injection, schedule: Q01DX009 (ip), vehicle: saline
[8] = dose: 50.0 mg/kg/injection, schedule: Q01DX009 (ip), vehicle: saline with Tween-80
[9] = dose: 100.0 mg/kg/injection, schedule: Q01DX009 (ip), vehicle: saline with Tween-80
[10] = dose: 50.0 mg/kg/injection, schedule: Q01DX009 (ip), vehicle: Klucel (hydroxypropylcellulose) (HPC)
[11] = dose: 200.0 mg/kg/injection, schedule: Q01DX009 (ip), vehicle: saline
[12] = dose: 100.0 mg/kg/injection, schedule: Q01DX009 (ip), vehicle: saline

CC(C)n1c2c([n+](C)c1/C=C/c1ccccc1)C(=O)c1ccccc1C2=O
survivor count (dose: 1.0 mg/kg/injection, schedule: Q01DX009 (ip), vehicle: saline): 3 of 10
survivor count (dose: 2.0 mg/kg/injection, schedule: Q01DX009 (ip), vehicle: saline with Tween-80): 9 of 10
survivor count (dose: 4.0 mg/kg/injection, schedule: Q01DX009 (ip), vehicle: saline with Tween-80): 6 of 10
survivor count (dose: 8.0 mg/kg/injection, schedule: Q01DX009 (ip), vehicle: saline with Tween-80): 0 of 10

CCC[CH2][Sn-]([CH2]CCC)([CH2]CCC)[O]C(=O)C(C)C
T/C (dose: 0.37 mg/kg/injection, schedule: Q01DX009 (ip), vehicle: saline with Tween-80): 138 % of control
T/C (dose: 0.75 mg/kg/injection, schedule: Q01DX009 (ip), vehicle: saline with Tween-80): 127 % of control
T/C (dose: 1.5 mg/kg/injection, schedule: Q01DX009 (ip), vehicle: saline with Tween-80): 131 % of control
survivor count (dose: 3.0 mg/kg/injection, schedule: Q01DX009 (ip), vehicle: saline with Tween-80): 2 of 10

O=NN(CCCl)C(=O)Nc1c[nH]c2ccccc12
T/C (dose: 3.13 mg/kg/injection, schedule: Q01DX009 (ip), vehicle: Klucel (hydroxypropylcellulose) (HPC)): 129 % of control
T/C (dose: 6.25 mg/kg/injection, schedule: Q01DX009 (ip), vehicle: Klucel (hydroxypropylcellulose) (HPC)): 128 % of control
T/C [1]: 130 % of control
T/C (dose: 25.0 mg/kg/injection, schedule: Q01DX009 (ip), vehicle: Klucel (hydroxypropylcellulose) (HPC)): 143 % of control
T/C [2]: 148 % of control [8 of 10 alive]
survivor count [3]: 5 of 10
survivor count [4]: 9 of 10

OC(CBr)C(O)C(O)C(O)CBr (centres undefined)
T/C [5]: 141 % of control
survivor count (dose: 320.0 mg/kg/injection, schedule: Q01DX009 (ip), vehicle: saline with Tween-80): 10 of 10
T/C (dose: 333.4 mg/kg/injection, schedule: Q01DX009 (ip), vehicle: saline with Tween-80): 125 % of control
T/C (dose: 400.0 mg/kg/injection, schedule: Q01DX009 (ip), vehicle: saline with Tween-80): 126 % of control
T/C [6]: 140 % of control

C1CCN(CN2CCCCC2)CC1
survivor count [7]: 10 of 10

CC1=CC2=C(C=O)C(=O)[C@](C)(O)[C@@H](O)C2=CO1
survivor count [8]: 10 of 10
survivor count [9]: 3 of 10

CC[C@H]1CN2CCc3cc(OC)c(OC)cc3[C@@H]2C[C@@H]1C[C@H]1NCCc2c1[nH]c1ccc(O)cc21
T/C (dose: 2.0 mg/kg/injection, schedule: Q01DX009 (ip), vehicle: Klucel (hydroxypropylcellulose) (HPC)): 133 % of control
survivor count (dose: 4.0 mg/kg/injection, schedule: Q01DX009 (ip), vehicle: Klucel (hydroxypropylcellulose) (HPC)): 10 of 10

CCCCCCCCCCCCCCNC(=O)CCl
survivor count [4]: 9 of 10

CC(=O)CC(=O)Nc1cccc([N+](=O)[O-])c1
survivor count [10]: 10 of 10

C=CCN(C(=O)OCC)c1ccccc1
survivor count [4]: 5 of 6

CCOC(=O)c1c[nH]c2oc(/C=N/N3CC(CN4CCOCC4)OC3=O)cc2c1=O (centres undefined)
T/C [11]: 129 % of control
survivor count [6]: 9 of 10

COc1cc2c(cc1OC)/C(=N/N)CCC2
survivor count (dose: 100.0 mg/kg/injection, schedule: Q01DX009 (ip), vehicle: water): 7 of 10

CNC(=O)ON(C(C)=O)C(=O)NC
survivor count [7]: 8 of 10
survivor count [12]: 1 of 10
survivor count [11]: 0 of 10
survivor count [6]: 0 of 10

Nc1nc(N)nc(N)n1
survivor count (dose: 800.0 mg/kg/injection, schedule: Q01DX009 (ip), vehicle: Klucel (hydroxypropylcellulose) (HPC)): 10 of 10
survivor count (dose: 1600.0 mg/kg/injection, schedule: Q01DX009 (ip), vehicle: saline with Tween-80): 7 of 10

Cc1[nH]ccc2c(C)c3nc4ccc(O)cc4c3cc12
T/C (dose: 5.0 mg/kg/injection, schedule: Q04DX003 (ip), vehicle: water): 129 % of control
T/C (dose: 10.0 mg/kg/injection, schedule: Q04DX003 (ip), vehicle: water, evaluated on day 45): 140 % of control
T/C (dose: 10.0 mg/kg/injection, schedule: Q04DX003 (ip), vehicle: water, evaluated on day 60): 131 % of control
T/C (dose: 20.0 mg/kg/injection, schedule: Q04DX003 (ip), vehicle: water): 147 % of control
survivor count (dose: 40.0 mg/kg/injection, schedule: Q04DX003 (ip), vehicle: water): 9 of 10
survivor count (dose: 80.0 mg/kg/injection, schedule: Q04DX003 (ip), vehicle: water): 9 of 10

NNC(=O)NO
survivor count [8]: 10 of 10
survivor count [9]: 10 of 10
survivor count [5]: 10 of 10

c1cc(OCC2CO2)ccc1OCC1CO1 (centres undefined)
survivor count [3]: 8 of 10
survivor count [4]: 1 of 10

CC(=O)OC1C(O)C(C)OC(OC2C(OC(=O)C3CCC4C(C3)OC3(CC(OC(=O)/C=C/c5ccccc5)C(C)CO3)C43CO3)OC(C)C(O)C2OC(C)=O)C1O (centres undefined)
T/C (dose: 2.0 mg/kg/injection, schedule: Q01DX009 (ip), vehicle: saline + alcohol): 125 and 138 % of control
T/C (dose: 4.0 mg/kg/injection, schedule: Q01DX009 (ip), vehicle: saline + alcohol): 142 [9 of 10 alive] and 143 % of control

COc1ccc(NC(=O)Nc2cc(Cl)ccc2OC)cc1
survivor count [1]: 10 of 10

CN(C)CC/C=C1/c2ccccc2COc2ccccc21
survivor count [12]: 3 of 10
survivor count [11]: 0 of 10
survivor count [6]: 0 of 10

CCOc1ccc(N2C(=O)CSC2=S)cc1
survivor count [2]: 10 of 10
survivor count [3]: 10 of 10
survivor count [4]: 10 of 10

CCCCN(CCCC)C(=O)c1[nH]cnc1/N=N\N(C)C
survivor count (dose: 200.0 mg/kg/injection, schedule: Q04DX003 (ip), vehicle: saline with Tween-80): 9 of 10
survivor count (dose: 400.0 mg/kg/injection, schedule: Q04DX003 (ip), vehicle: saline with Tween-80): 0 of 10

CC(C)CCC[C@@H](C)[C@H]1CC[C@H]2[C@@H]3CC=C4C[C@@H](O)CC[C@]4(C)[C@H]3CC[C@]12C
survivor count (dose: 400.0 mg/kg/injection, schedule: Q01DX009 (ip), vehicle: other): 10 of 10
survivor count (dose: 800.0 mg/kg/injection, schedule: Q01DX009 (ip), vehicle: other): 10 of 10
survivor count (dose: 1600.0 mg/kg/injection, schedule: Q01DX009 (ip), vehicle: other): 10 of 10

N#CC(Br)(Br)C(N)=O
survivor count (dose: 2.5 mg/kg/injection, schedule: Q01DX009 (ip), vehicle: saline): 10 of 10
survivor count (dose: 5.0 mg/kg/injection, schedule: Q01DX009 (ip), vehicle: saline): 10 of 10
survivor count (dose: 10.0 mg/kg/injection, schedule: Q01DX009 (ip), vehicle: saline): 9 of 10
survivor count (dose: 20.0 mg/kg/injection, schedule: Q01DX009 (ip), vehicle: saline): 0 of 10

Cc1ccc(CS)cc1
T/C [10]: 125 % of control

CN(C)CCCn1c2c(c3ccccc31)CCCCCC2
survivor count [12]: 2 of 10
survivor count [11]: 1 of 10
survivor count [6]: 0 of 10

C=CCOCC(O)CN(C)CCCC (centres undefined)
survivor count (dose: 50.0 mg/kg/injection, schedule: Q04DX003 (ip), vehicle: Klucel (hydroxypropylcellulose) (HPC)): 10 of 10
survivor count (dose: 100.0 mg/kg/injection, schedule: Q04DX003 (ip), vehicle: Klucel (hydroxypropylcellulose) (HPC)): 10 of 10
survivor count (dose: 200.0 mg/kg/injection, schedule: Q04DX003 (ip), vehicle: Klucel (hydroxypropylcellulose) (HPC)): 0 of 10
survivor count (dose: 200.0 mg/kg/injection, schedule: Q04DX003 (ip), vehicle: saline): 2 of 10
